These are yes or no findings as the source states them, for the method shown. Some binding calls cover weakened binding; strength is not graded here.
Experiments:
[1] = biological target: human IL23R Fc fusion protein (human) (UniProt Q5VWK5); assay: ELISA
[2] = biological target: human IL23R Fc fusion protein (human) (UniProt Q5VWK5); assay: ELISA, receptor-Fc coated on plate, titration of cytokine, detection with anti-human p40 monoclonal antibodies

By UniProt entry, the sequences of proteins in these tests, tags left out. Residues count along the entry.
UniProt Q5VWK5, residues 24-353: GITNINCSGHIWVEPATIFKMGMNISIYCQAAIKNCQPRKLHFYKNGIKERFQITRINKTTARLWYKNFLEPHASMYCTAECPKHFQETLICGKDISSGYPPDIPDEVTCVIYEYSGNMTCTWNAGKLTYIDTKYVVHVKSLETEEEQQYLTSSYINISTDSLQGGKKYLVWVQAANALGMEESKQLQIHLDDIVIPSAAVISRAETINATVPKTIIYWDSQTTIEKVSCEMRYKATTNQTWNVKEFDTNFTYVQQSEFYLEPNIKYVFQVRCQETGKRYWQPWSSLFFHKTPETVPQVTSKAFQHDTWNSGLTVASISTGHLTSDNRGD

B1: cynomolgus IL-23 (single chain: cyno p40 - 2 bovine elastin motifs - cyno p19) (ligand)
chain: IWELKKDVYVVELDWYPDAPGEMVVLTCDTPEEDGITWTLDQSGEVLGSGKTLTIQVKEFGDAGQYTCHKGGEALSHSLLLLHKKEDGIWSTDVLKDQKEPKNKTFLRCEAKNYSGRFTCWWLTTISTDLTFSVKSSRGSSNPQGVTCGAVTLSAERVRGDNKEYEYSVECQEDSACPAAEERLPIEVMVDAIHKLKYENYTSSFFIRDIIKPDPPKNLQLKPLKNSRQVEVSWEYPDTWSTPHSYFSLTFCIQVQGKSKREKKDRIFTDKTSATVICRKNASFSVQAQDRYYSSSWSEWASVPCSVPGVGVPGVGRAVPGGSSPAWAQCQQLSQKLCTLAWSAHPLVGHMDLREEGDEETTNDVPHIQCGDGCDPQGLRDNSQFCLQRIRQGLIFYEKLLGSDIFTGEPSLLPDSPVGQLHASLLGLSQLLQPEGHHWETQQIPSPSPSQPWQRLLLRFKILRSLQAFVAVAARVFAHGAATLSP
For B1, the binding [1] was “binds” and the binding [2] was “binds”.

— patent publication US20090142855A1
